Values from PubChem BioAssay AID1159578 (Peter MacCallum Cancer Centre, 2015)
Shown is an unselected part of about 18,000 reagents. In the full data, about 1,030 (5.7%) got an active call. 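Inactive calls also include pools with fewer than 3300 nuclei, whose migration was not assessed.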 Raw values are not corrected between plates. Unmarked entries are inactive.

- Aim: 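Knock-downs that alter how fast lymphatic endothelial cells migrate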 (primary screen)
- System: human lymphatic endothelial cells
- Reagents: siRNA pool against human genes, 40 nM
- Duration: 48 h after transfection
- Measurement: 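High-content imaging of dye-stained cells in a scratch assay measures filled wound area and nuclei per well; duplicate means given as ratio to mock and robust z-score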
- Direction: migration robust z-score: higher = faster migration into the scratch; migration relative to mock: higher = more scratch area covered than mock; nuclei per well: higher = more cells in the well
- Rule for the call: 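Pools averaging fewer than 3300 nuclei are never called; remaining pools count as changed when migration robust z lies outside -2 to 2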
- Meaning of the calls: active = migration changed; inactive = no migration change, or too few cells

migration robust z-score	migration class with cell-count check	migration relative to mock	nuclei per well, duplicate mean	gene
-0.03	migration z between -2 and 2; enough cells	0.8	4430	KSR2 (kinase suppressor of ras 2)
-1.2	migration z between -2 and 2; enough cells	0.57	5718	CDKL3 (cyclin dependent kinase like 3)
0.99	migration z between -2 and 2; enough cells	1	5312	KLF9 (KLF transcription factor 9)
0.31	migration z between -2 and 2; enough cells	0.86	5094	SIRT3 (sirtuin 3)
-0.06	migration z between -2 and 2; enough cells	0.87	6028	GNPAT (glyceronephosphate O-acyltransferase)
1.68	migration z between -2 and 2; enough cells	1.13	4350	ABCC1
0.42	migration z between -2 and 2; enough cells	1	5592	SFTPA2B (retired record)
1.56	migration z between -2 and 2; enough cells	1.29	6848	PLEKHM1 (pleckstrin homology and RUN domain containing M1)
1.15	migration z between -2 and 2; enough cells	1.18	6312	MRPL47 (mitochondrial ribosomal protein L47)
1.3	migration z between -2 and 2; enough cells	1.22	6885	TVP23B (trans-golgi network vesicle protein 23 homolog B)
-0.57	migration z between -2 and 2; enough cells	0.7	5726	SEC14L1 (SEC14 like lipid binding 1)
-0.86	migration z between -2 and 2; enough cells	0.64	5728	ADH6 (alcohol dehydrogenase 6 (class V))
0.65	migration z between -2 and 2; enough cells	1.06	4922	NTN1 (netrin 1)
0.78	migration z between -2 and 2; enough cells	0.96	6693	NEURL1 (neuralized E3 ubiquitin protein ligase 1)
-0.94	migration z between -2 and 2; enough cells	0.64	5512	PHACTR4 (phosphatase and actin regulator 4)
-0.19	migration z between -2 and 2; enough cells	0.84	4863	ATG13 (autophagy related 13)
0.4	migration z between -2 and 2; enough cells	0.99	6376	CBY2 (chibby family member 2)
1.15	migration z between -2 and 2; enough cells	1.19	6579	CLPS (colipase)
1.56	migration z between -2 and 2; enough cells	1.29	5417	NXPE2 (neurexophilin and PC-esterase domain family member 2)
0.41	migration z between -2 and 2; enough cells	0.99	5328	ZFHX2 (zinc finger homeobox 2)
0.28	migration z between -2 and 2; enough cells	0.96	4372	KNCN (kinocilin)
-0.21	migration z between -2 and 2; enough cells	0.76	7292	RXFP4 (relaxin family peptide/INSL5 receptor 4)
0.18	migration z between -2 and 2; enough cells	0.84	5376	KCNK9 (potassium two pore domain channel subfamily K member 9)
0.36	migration z between -2 and 2; enough cells	0.88	6034	USP42 (ubiquitin specific peptidase 42)
-0.75	migration z between -2 and 2; enough cells	0.66	5611	GNAI2 (G protein subunit alpha i2)
-0.9	migration z between -2 and 2; enough cells	0.64	4922	SPIDR (scaffold protein involved in DNA repair)
-0.34	migration z between -2 and 2; enough cells	0.74	6985	ITGA4 (integrin subunit alpha 4)
0.52	migration z between -2 and 2; enough cells	0.9	5566	TBX3 (T-box transcription factor 3)
0.38	migration z between -2 and 2; enough cells	0.98	7362	SRSF7 (serine and arginine rich splicing factor 7)
0.56	migration z between -2 and 2; enough cells	1.03	6154	PFN2 (profilin 2)
-1.84	migration z between -2 and 2; enough cells	0.45	4469	MAP2K3 (mitogen-activated protein kinase kinase 3)
0.55	migration z between -2 and 2; enough cells	1.03	5396	KCTD1 (potassium channel tetramerization domain containing 1)
0.26	migration z between -2 and 2; enough cells	0.95	4945	NPPC (natriuretic peptide C)
0.76	migration z between -2 and 2; enough cells	0.95	6374	RNASEH1 (ribonuclease H1)
0.46	migration z between -2 and 2; enough cells	0.9	5687	APRT (adenine phosphoribosyltransferase)
-0.23	migration z between -2 and 2; enough cells	0.83	5347	COLGALT2 (collagen beta(1-O)galactosyltransferase 2)
1.15	migration z between -2 and 2; enough cells	1.19	6213	MAD1L1 (mitotic arrest deficient 1 like 1)
-0.49	migration z between -2 and 2; enough cells	0.76	6600	PODXL2 (podocalyxin like 2)
0.02	migration z between -2 and 2; enough cells	0.89	5762	DNAJC12 (DnaJ heat shock protein family (Hsp40) member C12)

Limited to “migration relative to mock”, for 6 of the entries above:
CLPS (colipase)	1.19
NXPE2 (neurexophilin and PC-esterase domain family member 2)	1.29
ZFHX2 (zinc finger homeobox 2)	0.99
KNCN (kinocilin)	0.96
RXFP4 (relaxin family peptide/INSL5 receptor 4)	0.76
KCNK9 (potassium two pore domain channel subfamily K member 9)	0.84
